# Patent US12673971B2, “Amyloid-β aggregation inhibitor, pharmaceutical composition foramyloid-β aggregation disease, and use application of same” (O-FORCE CO., LTD, priority 2020, dated 2026)
# Test system: C57BL/6 mice
# Assay: Movement speed and time in center region of cage (sociability check of the object recognition test)
# Assay type: in vivo
# Conditions: day 1 of ORT
substance,measurement,setting,value
GSGFK [Peptide 2],movement speed,"administration group Aβ25-35(+)/GSGFK(+) vs control groups, FIG. 5(A)",no difference in movement speed between the groups
same,percentage of time spent in a center region,"administration group Aβ25-35(+)/GSGFK(+) vs negative control group, FIG. 5(B)",negative control group to which Aβ25-35 was administered had a slightly higher percentage of time spent than the administration group
